Consider 1 molecule from article PMC3724809, “Analysis of the Interaction Interfaces of the N-Terminal Domain from Pseudomonas aeruginosa MutL” (PLoS ONE, 2013).

These are yes or no findings as the source states them, for the method shown. Some binding calls cover weakened binding; strength is not graded here. Sequences can lack the tags named with a protein.

For the experiment, the target named is T1, Pseudomonas aeruginosa MutL C-terminal domain (PaCTD), from pTYB12-PaMutLΔ1–224, free of tag (Pseudomonas aeruginosa) (UniProt Q9HUL8).
T1 sequence: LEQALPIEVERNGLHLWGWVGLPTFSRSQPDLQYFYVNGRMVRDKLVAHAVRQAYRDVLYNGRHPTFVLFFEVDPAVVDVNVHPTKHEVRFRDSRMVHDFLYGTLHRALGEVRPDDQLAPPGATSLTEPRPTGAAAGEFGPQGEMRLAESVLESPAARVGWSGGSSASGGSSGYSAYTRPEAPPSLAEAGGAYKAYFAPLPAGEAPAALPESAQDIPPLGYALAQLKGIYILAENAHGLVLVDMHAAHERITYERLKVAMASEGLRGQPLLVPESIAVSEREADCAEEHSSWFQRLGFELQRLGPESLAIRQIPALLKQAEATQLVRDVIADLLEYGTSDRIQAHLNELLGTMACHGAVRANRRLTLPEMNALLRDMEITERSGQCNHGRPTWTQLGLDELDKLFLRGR
The experiment can be described thus: far-Western, overlay or dot blot; PaCTD (6.5 pmol) spotted on nitrocellulose; 0.6 µM His6-PaNTD in 20 mM Tris-HCl pH 8.0, 0.15 M KCl, 1 mM EDTA, 5 mM MgCl2, without nucleotide, with 0.1 mM ADP or with 0.1 mM ATP, overnight at 4°C; detected with anti-His6; both purified.

B1: Pseudomonas aeruginosa MutL N-terminal domain (PaNTD, amino acids 1-339), His6-tagged (domain or fragment, UniProt Q9HUL8 1-339, looked up)
chain: MSEAPRIQLLSPRLANQIAAGEVVERPASVAKELLENSLDAGSRRIDVEVEQGGIKLLRVRDDGRGIPADDLPLALARHATSKIRELEDLERVMSLGFRGEALASISSVARLTMTSRTADAGEAWQVETEGRDMQPRVQPAAHPVGTSVEVRDLFFNTPARRKFLRAEKTEFDHLQEVIKRLALARFDVAFHLRHNGKTIFALHEARDELARARRVGAVCGQAFLEQALPIEVERNGLHLWGWVGLPTFSRSQPDLQYFYVNGRMVRDKLVAHAVRQAYRDVLYNGRHPTFVLFFEVDPAVVDVNVHPTKHEVRFRDSRMVHDFLYGTLHRALGEVRPD
notes: MutL of Pseudomonas aeruginosa, N-terminal ATPase domain, residues 1-339 of PaMutL, amplified from genomic DNA; monomeric MW 37.7 kDa; The pET-15b vector should add an N-terminal His6 tag with a thrombin site (surmised, as is cloning through NdeI); no cleavage of the tag is described; also called His6-PaNTD; His-tag PaNTD
Consider B1, for which the binding result is “binds”.
